According to publication PMC4148960:
These are yes or no findings as the source states them, for the method shown. In cells and extracts the contact can be indirect. Some entries that bind do so weakly or less than the wild type. For part of these data: Where a sequence is shown, tags or fusion partners need not be part of it. Values belong to the substance of their own block, whether it stands above or below them.

By UniProt entry, the sequences of proteins in these tests, tags left out.
UniProt Q08122: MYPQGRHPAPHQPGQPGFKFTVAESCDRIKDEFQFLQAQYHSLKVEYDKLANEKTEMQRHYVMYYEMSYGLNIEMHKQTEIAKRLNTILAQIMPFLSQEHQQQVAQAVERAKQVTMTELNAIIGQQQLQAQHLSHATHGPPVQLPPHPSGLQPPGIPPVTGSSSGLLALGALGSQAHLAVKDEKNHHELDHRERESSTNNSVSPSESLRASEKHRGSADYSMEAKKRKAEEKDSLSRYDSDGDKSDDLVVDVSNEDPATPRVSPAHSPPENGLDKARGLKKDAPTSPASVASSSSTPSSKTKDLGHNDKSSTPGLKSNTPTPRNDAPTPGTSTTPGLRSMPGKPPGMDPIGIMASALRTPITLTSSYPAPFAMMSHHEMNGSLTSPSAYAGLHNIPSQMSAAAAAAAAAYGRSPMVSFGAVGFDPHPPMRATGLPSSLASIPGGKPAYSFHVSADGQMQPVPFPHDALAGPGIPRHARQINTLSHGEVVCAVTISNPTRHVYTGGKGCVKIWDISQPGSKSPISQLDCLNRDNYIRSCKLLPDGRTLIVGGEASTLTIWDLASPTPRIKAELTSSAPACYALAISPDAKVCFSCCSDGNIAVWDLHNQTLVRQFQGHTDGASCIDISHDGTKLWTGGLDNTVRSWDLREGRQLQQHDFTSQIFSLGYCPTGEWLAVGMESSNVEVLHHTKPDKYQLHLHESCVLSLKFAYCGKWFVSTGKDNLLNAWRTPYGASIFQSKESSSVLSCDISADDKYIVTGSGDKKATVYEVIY
UniProt Q62440: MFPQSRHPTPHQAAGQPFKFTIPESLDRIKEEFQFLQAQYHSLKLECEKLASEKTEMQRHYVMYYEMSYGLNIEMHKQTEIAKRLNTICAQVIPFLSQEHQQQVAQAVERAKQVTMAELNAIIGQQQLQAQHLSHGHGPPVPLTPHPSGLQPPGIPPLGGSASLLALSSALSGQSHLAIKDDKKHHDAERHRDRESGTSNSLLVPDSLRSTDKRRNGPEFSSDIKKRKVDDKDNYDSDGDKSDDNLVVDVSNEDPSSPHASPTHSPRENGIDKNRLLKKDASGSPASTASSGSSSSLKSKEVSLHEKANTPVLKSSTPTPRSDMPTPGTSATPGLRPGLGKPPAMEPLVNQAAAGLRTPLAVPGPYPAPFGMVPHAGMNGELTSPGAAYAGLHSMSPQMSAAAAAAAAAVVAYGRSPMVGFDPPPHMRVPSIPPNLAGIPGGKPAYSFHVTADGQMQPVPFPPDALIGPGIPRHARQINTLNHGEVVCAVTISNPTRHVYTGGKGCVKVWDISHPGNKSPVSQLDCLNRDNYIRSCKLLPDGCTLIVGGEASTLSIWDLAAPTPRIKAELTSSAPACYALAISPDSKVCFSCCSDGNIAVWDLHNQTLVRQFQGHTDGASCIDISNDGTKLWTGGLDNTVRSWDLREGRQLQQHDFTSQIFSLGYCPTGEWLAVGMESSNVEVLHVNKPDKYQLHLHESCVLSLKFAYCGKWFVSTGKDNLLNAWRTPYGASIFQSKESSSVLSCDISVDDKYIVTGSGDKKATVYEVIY
UniProt P48431: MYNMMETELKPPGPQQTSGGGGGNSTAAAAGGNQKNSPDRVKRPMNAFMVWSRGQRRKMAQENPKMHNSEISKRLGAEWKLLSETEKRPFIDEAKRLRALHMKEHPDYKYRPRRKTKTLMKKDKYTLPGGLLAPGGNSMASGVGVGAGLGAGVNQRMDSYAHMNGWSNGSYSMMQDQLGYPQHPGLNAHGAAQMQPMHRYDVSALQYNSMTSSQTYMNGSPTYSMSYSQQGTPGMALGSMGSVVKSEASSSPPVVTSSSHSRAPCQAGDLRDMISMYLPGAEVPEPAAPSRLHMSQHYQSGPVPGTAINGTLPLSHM
UniProt P48432: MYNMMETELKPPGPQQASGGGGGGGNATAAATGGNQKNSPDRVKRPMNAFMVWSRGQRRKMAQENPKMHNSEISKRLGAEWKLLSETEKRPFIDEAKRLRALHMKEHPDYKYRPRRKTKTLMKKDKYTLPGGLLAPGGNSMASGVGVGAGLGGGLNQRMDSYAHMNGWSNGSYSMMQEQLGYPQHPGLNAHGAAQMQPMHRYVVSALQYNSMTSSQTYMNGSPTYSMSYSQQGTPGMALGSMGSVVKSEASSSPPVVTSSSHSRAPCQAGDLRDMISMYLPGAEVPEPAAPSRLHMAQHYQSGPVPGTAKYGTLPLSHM

How the values were obtained:
[1] = target: MYC-tagged Grg3 (UniProt Q08122); test: co-IP; human ReNcell VM NSCs transfected with MYC-tagged Grg3 or Grg5; cells treated with 1 mM DSP cross-linker for 30 min; MYC antibody-conjugated beads; blot with anti-Sox2 for endogenous Sox2
[2] = target: T1, MYC-tagged Grg5 (in human neural stem cells) (UniProt P63002); test: as above
T1 sequence: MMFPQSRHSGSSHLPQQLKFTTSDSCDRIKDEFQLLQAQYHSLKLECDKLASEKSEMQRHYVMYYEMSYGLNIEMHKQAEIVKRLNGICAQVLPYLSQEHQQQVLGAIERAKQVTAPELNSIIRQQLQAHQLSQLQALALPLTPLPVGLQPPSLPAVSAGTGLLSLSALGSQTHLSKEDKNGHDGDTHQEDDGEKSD

[3] = target: T2, MYC-Grg5 (in COS-7 cells) (UniProt P63002); test: co-IP; COS-7 cells co-transfected with MYC-Grg5 and WT Sox2 or Sox2^M203–209; 1 mM DSP cross-linker for 30 min; MYC antibody-conjugated beads; blot with anti-Sox2
T2 sequence: T1 sequence

[4] = target: T3, GST-fused Grg5 (UniProt P63002); test: pull-down; data not shown: amounts of radiolabelled Sox2 pulled down by GST-Grg1 and GST-Grg5 compared
T3 sequence: T1 sequence

[5] = target: T3, GST-fused Grg5; test: pull-down; GST-Grg1 or GST-Grg5 from lysed BL21 E. coli incubated with S^35-labelled in vitro translated Sox2 proteins; pulled down with Glutathione-sepharose 4B beads; PAGE gel on a phosphorimager
[6] = target: GST-fused Grg1 (UniProt Q62440); test: as above

binding [1]: binds
binding [2]: binds
Substance: Sox2 (endogenous, human neural stem cells) (from UniProt P48431 1-317)

binding [3]: binds
Substance: WT Sox2 (transfected, COS-7 cells) (from UniProt P48432 1-319)

binding [4]: binds
binding [5]: binds
binding [6]: binds
Substance: radiolabelled Sox2 (in vitro translated) (from UniProt P48432 1-319)
